The supplement of paper PMC6078165

Tested on: Hs578T
Assay: relative JC-1 red fluorescence (viability) vs pre-drug, coculture with fibroblast (fraction); higher = more viable cancer cells
Method: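 JC-1 labelled TNBC cells cocultured 1:1 (1,500 cells each) with CellTrace Violet stained primary or stromal fibroblasts in 384-well plates in FluoroBrite medium, treated with one of 42 anticancer drugs at 0.1, 1, 10 or 100 uM. JC-1 red fluorescence (mitochondrial integrity in cancer cells only) was read by plate reader every 8 h for 72 h. Values are normalised to each well's pre-drug value. The stock of one drug was tenfold lower, so its dose labels may be too high.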

CC[C@]1(O)C[C@H]2CN(CCc3c([nH]c4ccccc34)[C@@](C(=O)OC)(c3cc4c(cc3OC)N(C=O)[C@H]3[C@@](O)(C(=O)OC)[C@H](OC(C)=O)[C@]5(CC)C=CCN6CC[C@]43[C@@H]65)C2)C1 [Vincristine]
relative JC-1 red fluorescence
Conditions | 8 h | 16 h | 24 h | 32 h | 40 h | 48 h | 56 h | 64 h | 72 h
10 µM | 0.888 | 0.83 | 0.782 | 0.7238 | 0.646 | 0.619 | 0.608 | 0.583 | 0.602
100 µM | 0.9302 | 0.872 | 0.849 | 0.81 | 0.748 | 0.724 | 0.709 | 0.683 | 0.683

relative JC-1 red fluorescence
Conditions | 8 h | 16 h | 24 h | 32 h | 40 h | 48 h | 56 h | 64 h | 72 h
10 µM, coculture fibroblast: C12385 | 0.843 | 0.807 | 0.7893 | 0.7105 | 0.639 | 0.603 | 0.567 | 0.551 | 0.543
10 µM, coculture fibroblast: H6013 | 0.8713 | 0.8408 | 0.807 | 0.763 | 0.713 | 0.702 | 0.677 | 0.672 | 0.645
10 µM, coculture fibroblast: H6019 | 0.811 | 0.7436 | 0.728 | 0.66 | 0.627 | 0.605 | 0.593 | 0.592 | 0.588
10 µM, coculture fibroblast: H6076 | 0.926 | 0.896 | 0.869 | 0.8311 | 0.742 | 0.726 | 0.702 | 0.703 | 0.713
10 µM, coculture fibroblast: H6231 | 0.936 | 0.832 | 0.777 | 0.731 | 0.6588 | 0.6378 | 0.6029 | 0.584 | 0.569
10 µM, coculture fibroblast: HADF | 0.8943 | 0.8588 | 0.803 | 0.747 | 0.693 | 0.657 | 0.612 | 0.598 | 0.574
10 µM, coculture fibroblast: HCFa | 0.8545 | 0.815 | 0.78 | 0.724 | 0.679 | 0.666 | 0.655 | 0.656 | 0.649
10 µM, coculture fibroblast: HCPF | 0.911 | 0.87 | 0.832 | 0.783 | 0.698 | 0.667 | 0.641 | 0.603 | 0.585
10 µM, coculture fibroblast: HHSteC | 0.884 | 0.8494 | 0.796 | 0.744 | 0.693 | 0.666 | 0.644 | 0.632 | 0.612
10 µM, coculture fibroblast: HMF | 0.954 | 0.926 | 0.893 | 0.854 | 0.752 | 0.705 | 0.65 | 0.626 | 0.607
10 µM, coculture fibroblast: HPFa | 0.92 | 0.87 | 0.828 | 0.757 | 0.714 | 0.689 | 0.664 | 0.662 | 0.639
10 µM, coculture fibroblast: HUF | 0.8787 | 0.775 | 0.743 | 0.643 | 0.562 | 0.519 | 0.482 | 0.476 | 0.468
10 µM, coculture fibroblast: Hs27A | 0.95 | 0.86529 | 0.825 | 0.7684 | 0.7113 | 0.7009 | 0.673 | 0.671 | 0.636
10 µM, coculture fibroblast: Hs343T | 0.9407 | 0.882 | 0.8266 | 0.794 | 0.679 | 0.633 | 0.57 | 0.542 | 0.53
10 µM, coculture fibroblast: WS1 | 0.833 | 0.766 | 0.721 | 0.6133 | 0.5311 | 0.5133 | 0.47 | 0.455 | 0.448
100 µM, coculture fibroblast: C12385 | 0.829 | 0.776 | 0.733 | 0.67 | 0.626 | 0.598 | 0.557 | 0.534 | 0.52
100 µM, coculture fibroblast: H6013 | 0.9617 | 0.974 | 0.961 | 0.938 | 0.882 | 0.857 | 0.835 | 0.84 | 0.819
100 µM, coculture fibroblast: H6019 | 0.811 | 0.78 | 0.7826 | 0.7371 | 0.712 | 0.696 | 0.675 | 0.663 | 0.661
100 µM, coculture fibroblast: H6076 | 0.954 | 0.933 | 0.931 | 0.892 | 0.841 | 0.831 | 0.797 | 0.79 | 0.794
100 µM, coculture fibroblast: H6231 | 0.886 | 0.839 | 0.809 | 0.786 | 0.726 | 0.7018 | 0.6775 | 0.648 | 0.6272
100 µM, coculture fibroblast: HADF | 0.88 | 0.87 | 0.943 | 0.932 | 0.884 | 0.88 | 0.8519 | 0.81935 | 0.779
100 µM, coculture fibroblast: HCFa | 0.938 | 0.865 | 0.91 | 0.91 | 0.854 | 0.8755 | 0.848 | 0.849 | 0.824
100 µM, coculture fibroblast: HCPF | 0.929 | 0.905 | 0.886 | 0.832 | 0.802 | 0.793 | 0.781 | 0.75 | 0.727
100 µM, coculture fibroblast: HHSteC | 0.969 | 0.981 | 0.958 | 0.906 | 0.837 | 0.826 | 0.7971 | 0.7742 | 0.735
100 µM, coculture fibroblast: HMF | 0.928 | 0.888 | 0.8671 | 0.844 | 0.775 | 0.745 | 0.7128 | 0.703 | 0.69
100 µM, coculture fibroblast: HPFa | 0.953 | 0.926 | 0.8795 | 0.835 | 0.782 | 0.753 | 0.721 | 0.7 | 0.641
100 µM, coculture fibroblast: HUF | 0.912 | 0.87 | 0.849 | 0.792 | 0.743 | 0.699 | 0.663 | 0.654 | 0.635
100 µM, coculture fibroblast: Hs27A | 0.945 | 0.96 | 0.9393 | 0.927 | 0.87 | 0.885 | 0.872 | 0.872 | 0.834
100 µM, coculture fibroblast: Hs343T | 0.9676 | 0.897 | 0.8741 | 0.858 | 0.766 | 0.751 | 0.698 | 0.685 | 0.673
100 µM, coculture fibroblast: WS1 | 0.814 | 0.775 | 0.69 | 0.605 | 0.547 | 0.528 | 0.484 | 0.472 | 0.467

The reference is the same well before dosing, and untreated signal decays as well.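 Fibroblast labels name human fibroblasts: mostly primary ones from tissues such as uterus (C12385, HUF), lung (H6013), bone (Hs27A), adrenal (HADF) and skin (WS1), plus mammary HMF and breast cancer-associated Hs343T. The cancer cells are basal-like or mesenchymal-like triple-negative breast cancer lines. The paper calls a changed response a hit when it shifts by more than 3x the replicate standard deviation. The tissue of the other fibroblasts is not given here.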
